{"source": "paper PMC5011436", "binders": {"B1": {"name": "Sts5-HA (protein, UniProt O74454 1-1066)", "chain": "MDEEFENDFPYKVMLNQQQDPSDAQSSPTFVPSANPSLTTPWLQTTPSANRPTWLPLQQHMHQLRHTGLLPAVESSFVHGHRRSASAGVGMGNFSNQATIPSNSPAVSNMQPPTQGGQPLYPTNFFTTSVSASSDSFPNSPTVPSKFSLNPSVATSTNISPRRHAKSHSVASVSSPNSHNAVPFTPHAFVPPVNNASPLPALNTLPQLLRPRNLDAQWRPSSLSQTNSPTHAANPSFPGTIVTHNTSNFRPEGGGHRHRRSTGSLSVGSSGSGFSSGGSGNPRKNLFSPYLPQSSIPALLAERRLVTGILIVSKKNRSDAFVSVDGLDAEVFICGSKDRNRALEGDVVAIELLDVDEVWAGKLEKEENRRRKDPISTRGSFDNLRIDAVPFEVPQRSAIKARDDEQVEGQTLFLLDQKQLGADEKPKYAGHVVAVLQRAPGQVFSGTLGILRPSSAANKERQTSSGNQGSSNNSGNDKPKIVWFKPSDKRVPLIAIPTEQAPTDFLGNDQAYAQRLFLASIKRWPVTSLHPFGMLVGELGSMDSMSAQVSALLHDTGVHSEPWEGSAATSAVTALNALSDNFLNVAGCADYRSEDVFLFVKNDVSKAAVSEVKQHESNINSSSATDFVSSAFHIRPTSTGYHVGIHVTDVSRVIEPGSPLDRELQRRSIAVNLCQKSVPLFPTTLGEALSLREDKDCYTMSLLLDVSSTGKIRGTWIGWAVIRPRKAYTMKEADELLQTDARLRLFHTVSSRLRTHHLGTDVPLSRYCRLVRRWDEESCSFDPNETNLFISSAVEVLRETLLDAANRAVASHLRQEFRENAFLRTQRLPSRENCRILQSMAIQMGCVLDLSSTKSLLRSLSLIEDDTVRNILQLYYYKVTPRAVYEMQKYKGNLASQMMSLGIEDESDDLTHFTAPLERYGDIVVHYQLQLLLRGELASEKRLRVWSQAANDASRRLVISKFAQETSIHIKIFSDWAESQVWQDGLVCFVAPSYFDVFFPSLGMEKRVHLDLLNLTHVRFEEDQGILSLYDESGAVTVVKLLTSVKVKLFVQLSTPPLINVSNVEF"}}, "molecular_target": "GST alone", "experiment": "pull-down; GST or GST-Rad24 on glutathione sepharose or magnetic beads, mixed with fission yeast protein extract of Sts5-HA strains overnight at 4°C; washed with TRIS lysis buffer (50 mM TrisCl pH 7.7, 150 mM NaCl, 5 mM EDTA, 5% glycerol, 1% Triton X); anti-HA western blot; extracts of untreated cells, of orb6-as2 cells with DMSO and of orb6+ cells with DMSO or 50 μM 1-NA-PP1; only the target purified", "note": "These are yes or no findings as the source states them, for the method shown. Binding seen in cells or lysates may run through a third protein. Sequences can lack the tags named with a protein."}
{"binder": "B1", "values": [{"measurement": "binding", "result": "no binding"}]}
